Reference: the supplement of paper PMC5770031
This is one part of the list. This data set is noisy: repeats of one test often differ as much as different tests do.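 Flies heterozygous for the ATM8 allele over a balancer chromosome carrying normal ATM were mated with each other on treated food. Parents laid eggs for 5–6 days and the young then developed for about 12 days, so both parents and larvae ate the compound. The read-out is the share of all emerged adults that carry two ATM8 copies, compared with 2% DMSO control vials. The paper called compounds neutral at 10–20% such offspring, harmful below 10%, and helpful above 20%.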

Each compound was assayed on Drosophila melanogaster ATM8 (temperature-sensitive ATM allele) (assay: fraction of eclosed F1 progeny that are homozygous ATM8 (rescue of developmental lethality); higher = more rescue of ATM8 developmental lethality; extreme values may be limits of the assay). Settings: compound concentration applied to food 0.2 mM; 21 °C.

Structure (SMILES) | fraction of eclosed F1 progeny that are homozygous ATM8
CCC1(c2ccccc2)NC(=O)N(C)C1=O (stereo not drawn) | 0.238
CC1=C(C(=O)O)N2C(=O)[C@@H](NC(=O)[C@H](N)C3=CCC=CC3)[C@H]2SC1 | 0.118
N[C@@H](CCC(=O)N[C@@H](CS)C(=O)NCC(=O)O)C(=O)O | 0
COc1cc(C(=O)NCCCCCC(=O)O)cc(OC)c1OC | 0.0333
COC(=O)C1OC(=O)C2OC23C1(C)CCC1C2(C)C(OC(C)=O)CC(OC(C)=O)C(C)(C)C2CC(O)C13C (stereo not drawn) | 0.0408
COc1cc2c3cc1Oc1cc(ccc1O)C[C@@H]1c4c(cc(OC)c(O)c4Oc4ccc(cc4)C[C@@H]3N(C)CC2)CC[N+]1(C)C | 0.0488
CC(CCc1ccccc1)NC(C)C(O)c1ccc(O)cc1 (stereo not drawn) | 0.116
COc1cccc(C2(O)CCCCC2CN(C)C)c1 (stereo not drawn) | 0
CC1(C)[C@H](C(=O)O)N2C(=O)C[C@H]2S1(=O)=O | 0.0909
Cc1ncc(CO)c(CO)c1O | 0.0566
CC1=C(/C=C/C(C)=C/C=C/C(C)=C/C=C/C=C(C)/C=C/C=C(C)/C=C/C2=C(C)C(=O)[C@@H](O)CC2(C)C)C(C)(C)C[C@H](O)C1=O | 0.147
CC(=O)Oc1ccccc1C(=O)O | 0.0222
Cc1cc(=O)oc2cc(O)cc(O)c12 | 0.0789
O=c1cc(-c2ccccc2)oc2cc(O)ccc12 | 0.156
CC1=C(/C=C/C(C)=C/C=C/C(C)=C/C(=O)O)C(C)(C)CCC1 | 0.17
NC[C@@H]1CC[C@@H](N)[C@@H](O[C@H]2[C@H](O)[C@@H](O[C@H]3O[C@H](CO)[C@@H](O)[C@H](N)[C@H]3O)[C@H](N)C[C@@H]2N)O1 | 0.231
C[N+]1(C)[C@@H]2CC[C@H]1C[C@@H](OC(=O)C(O)c1ccccc1)C2 (stereo partly drawn) | 0.174
COc1ccc2c(c1)OC/C(=C\c1ccc(OC)c(O)c1)C2=O | 0.153
COC(=O)C1=C(C)NC(C)=C(C(=O)OCCN2CCN(C(c3ccccc3)c3ccccc3)CC2)C1c1cccc([N+](=O)[O-])c1 (stereo not drawn) | 0.0182
CC(=O)Nc1ccccc1 | 0.2
COC(=O)[C@H]1[C@H]2C[C@H]3c4[nH]c5ccccc5c4CCN3C[C@@H]2CC[C@@H]1O | 0.0682
C[C@H]1COc2c(C3(N)CC3)c(F)cc3c(=O)c(C(=O)O)cn1c23 | 0.0833
CC(C(=O)O)c1ccc2c(c1)Cc1cccnc1O2 (stereo not drawn) | 0.0811
CSc1ccc2c(c1)C(N1CCN(C)CC1)Cc1ccccc1S2 (stereo not drawn) | 0.098
Cc1cc(C(C)(C)C)c(O)c(C)c1CC1=NCCN1 | 0.17
CN(C)CCCN1c2ccccc2Sc2ccccc21 | 0.216
COc1ccc2c(=O)ccoc2c1 | 0.0476
C=CC(C1=CC(=O)C=CC1=O)c1ccccc1 (stereo not drawn) | 0.0682

Rewritten as labelled records: entries from further up.
Cc1cc(C(C)(C)C)c(O)c(C)c1CC1=NCCN1
  fraction of eclosed F1 progeny that are homozygous ATM8: 0.17
CN(C)CCCN1c2ccccc2Sc2ccccc21
  fraction of eclosed F1 progeny that are homozygous ATM8: 0.216
